PubChem BioAssay AID1259308, NCATS, 2017
The whole screen tested about 59,000 reagents; shown is an unselected part. Of all reagents, about 1,510 (2.6%) are marked active. 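Calls use total luciferase alone and ignore viability, so some active siRNAs may act by altering cell number.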 The numbers tell different reagents against one gene apart. Further read-outs or replicates are left out here.

Aim: 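Candidate targets for better recombinant protein yield in mammalian cells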 (primary screen)
System: human HEK293 embryonic kidney cells stably expressing firefly luciferase (HEK-CMV-Luc2-Hygro)
Knock-down reagent: single siRNA against human genes, 0.8 pmol siRNA per well
Timing: 72 h
Detection: 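Reporter luminescence and viable-cell signal on separate replicate plates, given as percent of non-targeting control and median/MAD z-scores, plus per-cell luciferase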
Reading the numbers: total luciferase, z-score: higher = more reporter protein produced
Active means: 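Active when the median/MAD z-score for overall luciferase is greater than 3; a gene was taken forward for validation with new siRNAs if at least two of its three siRNAs passed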
Calls: active = raised luciferase; inactive = no rise

{"gene": "SYTL5 (synaptotagmin like 5)", "reagent": 1, "total luciferase, z-score": -1.08, "outcome": "inactive"}
{"gene": "SYTL5 (synaptotagmin like 5)", "reagent": 2, "total luciferase, z-score": -1.08, "outcome": "inactive"}
{"gene": "SYTL5 (synaptotagmin like 5)", "reagent": 3, "total luciferase, z-score": 3.54, "outcome": "active"}
{"gene": "TMSB10 (thymosin beta 10)", "reagent": 1, "total luciferase, z-score": 3.92, "outcome": "active"}
{"gene": "TMSB10 (thymosin beta 10)", "reagent": 2, "total luciferase, z-score": 0.142, "outcome": "inactive"}
{"gene": "TMSB10 (thymosin beta 10)", "reagent": 3, "total luciferase, z-score": 0.236, "outcome": "inactive"}
{"gene": "ATP9B (ATPase phospholipid transporting 9B)", "reagent": 1, "total luciferase, z-score": 0.312, "outcome": "inactive"}
{"gene": "ATP9B (ATPase phospholipid transporting 9B)", "reagent": 2, "total luciferase, z-score": -0.196, "outcome": "inactive"}
{"gene": "ATP9B (ATPase phospholipid transporting 9B)", "reagent": 3, "total luciferase, z-score": -1.19, "outcome": "inactive"}
{"gene": "ST8SIA4 (ST8 alpha-N-acetyl-neuraminide alpha-2,8-sialyltransferase 4)", "reagent": 1, "total luciferase, z-score": 0.421, "outcome": "inactive"}
{"gene": "ST8SIA4 (ST8 alpha-N-acetyl-neuraminide alpha-2,8-sialyltransferase 4)", "reagent": 2, "total luciferase, z-score": 1.27, "outcome": "inactive"}
{"gene": "ST8SIA4 (ST8 alpha-N-acetyl-neuraminide alpha-2,8-sialyltransferase 4)", "reagent": 3, "total luciferase, z-score": 0.958, "outcome": "inactive"}
{"gene": "DYNC2I2 (dynein 2 intermediate chain 2)", "reagent": 1, "total luciferase, z-score": -0.323, "outcome": "inactive"}
{"gene": "DYNC2I2 (dynein 2 intermediate chain 2)", "reagent": 2, "total luciferase, z-score": -1.42, "outcome": "inactive"}
{"gene": "DYNC2I2 (dynein 2 intermediate chain 2)", "reagent": 3, "total luciferase, z-score": -1.36, "outcome": "inactive"}
{"gene": "ORC3 (origin recognition complex subunit 3)", "reagent": 1, "total luciferase, z-score": -2.17, "outcome": "inactive"}
{"gene": "ORC3 (origin recognition complex subunit 3)", "reagent": 2, "total luciferase, z-score": 1.06, "outcome": "inactive"}
{"gene": "ORC3 (origin recognition complex subunit 3)", "reagent": 3, "total luciferase, z-score": 0.484, "outcome": "inactive"}
{"gene": "APCS (amyloid P component, serum)", "reagent": 1, "total luciferase, z-score": 0.0273, "outcome": "inactive"}
{"gene": "APCS (amyloid P component, serum)", "reagent": 2, "total luciferase, z-score": 1.45, "outcome": "inactive"}
{"gene": "APCS (amyloid P component, serum)", "reagent": 3, "total luciferase, z-score": -0.806, "outcome": "inactive"}
{"gene": "KCNA5 (potassium voltage-gated channel subfamily A member 5)", "reagent": 1, "total luciferase, z-score": -0.239, "outcome": "inactive"}
{"gene": "KCNA5 (potassium voltage-gated channel subfamily A member 5)", "reagent": 2, "total luciferase, z-score": 2.1, "outcome": "inactive"}
{"gene": "KCNA5 (potassium voltage-gated channel subfamily A member 5)", "reagent": 3, "total luciferase, z-score": 1.46, "outcome": "inactive"}
{"gene": "NLRC5 (NLR family CARD domain containing 5)", "reagent": 1, "total luciferase, z-score": 0.243, "outcome": "inactive"}
{"gene": "NLRC5 (NLR family CARD domain containing 5)", "reagent": 2, "total luciferase, z-score": -0.105, "outcome": "inactive"}
{"gene": "NLRC5 (NLR family CARD domain containing 5)", "reagent": 3, "total luciferase, z-score": 0.561, "outcome": "inactive"}
{"gene": "VN2R17P (vomeronasal 2 receptor 17, pseudogene)", "reagent": 1, "total luciferase, z-score": 1.65, "outcome": "inactive"}
{"gene": "VN2R17P (vomeronasal 2 receptor 17, pseudogene)", "reagent": 2, "total luciferase, z-score": 0.0599, "outcome": "inactive"}
{"gene": "VN2R17P (vomeronasal 2 receptor 17, pseudogene)", "reagent": 3, "total luciferase, z-score": 1.14, "outcome": "inactive"}
{"gene": "N4BP2L2 (NEDD4 binding protein 2 like 2)", "reagent": 1, "total luciferase, z-score": -0.381, "outcome": "inactive"}
{"gene": "N4BP2L2 (NEDD4 binding protein 2 like 2)", "reagent": 2, "total luciferase, z-score": 0.211, "outcome": "inactive"}
{"gene": "N4BP2L2 (NEDD4 binding protein 2 like 2)", "reagent": 3, "total luciferase, z-score": 1.15, "outcome": "inactive"}

A few values from above:
Value of N4BP2L2 (NEDD4 binding protein 2 like 2) #1 under “total luciferase, z-score”: -0.381
Under “outcome”, VN2R17P (vomeronasal 2 receptor 17, pseudogene) #2 is entered as inactive
